Data: the supplement of paper PMC8728848
The other results are listed elsewhere or left out.

What was measured:
Experiment in all cases: glycan array binding signal (z-score within array); higher = stronger binding
Conditions in all cases: glycan notation: IUPAC condensed, linker removed
[1] = molecular target: GlcNAc(a1-3)Gal(b1-4)GlcNAc
In short: (§1)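 Glycan array binding is given as a within-array Z-score, which can be read as non-binding when negative. The arrays, 3228 of them, came from the Consortium for Functional Glycomics database and were retained only where the protein sequence was available. Z-scores were averaged across arrays of the same protein sequence at different concentrations or buffers and across linkers.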

[2] = molecular target: GlcNAc(a1-4)Gal(b1-3)GlcNAc
In short: as §1

[3] = molecular target: GlcNAc(a1-4)Gal(b1-4)GalNAc
In short: as §1

[4] = molecular target: GlcNAc(a1-4)Gal(b1-4)GlcNAc
In short: as §1

[5] = molecular target: GlcNAc(a1-4)Gal(b1-4)GlcNAc(b1-3)Gal(b1-4)Glc
In short: as §1

[6] = molecular target: GlcNAc(a1-4)Gal(b1-4)GlcNAc(b1-3)Gal(b1-4)GlcNAc
In short: as §1

[7] = molecular target: GlcNAc(a1-4)Gal(b1-4)GlcNAc(b1-3)Gal(b1-4)GlcNAc(b1-3)Gal(b1-4)GlcNAc
In short: as §1

[8] = molecular target: GlcNAc(a1-4)Gal(b1-4)GlcNAc(b1-3)Gal(b1-4)[Fuc(a1-3)]GlcNAc(b1-3)Gal(b1-4)[Fuc(a1-3)]GlcNAc
In short: as §1

[9] = molecular target: GlcNAc(a1-6)Gal(b1-4)GlcNAc
In short: as §1

[10] = molecular target: GlcNAc(b1-2)Gal(b1-3)GalNAc
In short: as §1

[11] = molecular target: GlcNAc(b1-2)Man(a1-3)[GlcNAc(b1-2)Man(a1-6)]Man(b1-4)GlcNAc(b1-4)GlcNAc
In short: as §1

[12] = molecular target: GlcNAc(b1-2)Man(a1-3)[GlcNAc(b1-2)Man(a1-6)]Man(b1-4)GlcNAc(b1-4)[Fuc(a1-6)]GlcNAc
In short: as §1

[13] = molecular target: GlcNAc(b1-2)Man(a1-3)[GlcNAc(b1-4)][GlcNAc(b1-2)Man(a1-6)]Man(b1-4)GlcNAc(b1-4)GlcNAc
In short: as §1

[14] = molecular target: GlcNAc(b1-2)Man(a1-3)[GlcNAc(b1-4)][GlcNAc(b1-2)Man(a1-6)]Man(b1-4)GlcNAc(b1-4)[Fuc(a1-6)]GlcNAc
In short: as §1

[15] = molecular target: GlcNAc(b1-2)[GlcNAc(b1-4)]Man(a1-3)[GlcNAc(b1-2)Man(a1-6)]Man(b1-4)GlcNAc(b1-4)GlcNAc
In short: as §1

[16] = molecular target: GlcNAc(b1-2)[GlcNAc(b1-4)]Man(a1-3)[GlcNAc(b1-4)][GlcNAc(b1-2)Man(a1-6)]Man(b1-4)GlcNAc(b1-4)GlcNAc
In short: as §1

[17] = molecular target: GlcNAc(b1-2)[GlcNAc(b1-4)]Man(a1-3)[GlcNAc(b1-4)][GlcNAc(b1-2)[GlcNAc(b1-6)]Man(a1-6)]Man(b1-4)GlcNAc(b1-4)GlcNAc
In short: as §1

[18] = molecular target: GlcNAc(b1-2)[GlcNAc(b1-4)]Man(a1-3)[GlcNAc(b1-4)][GlcNAc(b1-2)[GlcNAc(b1-6)]Man(a1-6)]Man(b1-4)GlcNAc(b1-4)[Fuc(a1-6)]GlcNAc
In short: as §1

[19] = molecular target: GlcNAc(b1-2)[GlcNAc(b1-6)]Man(a1-6)[GlcNAc(b1-2)Man(a1-3)]Man(b1-4)GlcNAc(b1-4)GlcNAc
In short: as §1

[20] = molecular target: GlcNAc(b1-2)[GlcNAc(b1-6)]Man(a1-6)[GlcNAc(b1-2)Man(a1-3)]Man(b1-4)GlcNAc(b1-4)[Fuc(a1-6)]GlcNAc
In short: as §1

[21] = molecular target: GlcNAc(b1-2)[GlcNAc(b1-6)]Man(a1-6)[GlcNAc(b1-4)][GlcNAc(b1-2)Man(a1-3)]Man(b1-4)GlcNAc(b1-4)GlcNAc
In short: as §1

GlcNAc(b1-3)Fuc = molecular target: GlcNAc(b1-3)Fuc
In short: as §1

GlcNAc(b1-3)Gal = molecular target: GlcNAc(b1-3)Gal
In short: as §1

[22] = molecular target: GlcNAc(b1-3)Gal(b1-3)GalNAc
In short: as §1

GlcNAc(b1-3)Gal(b1-4)Glc = molecular target: GlcNAc(b1-3)Gal(b1-4)Glc
In short: as §1

[23] = molecular target: GlcNAc(b1-3)Gal(b1-4)GlcNAc
In short: as §1

[24] = molecular target: GlcNAc(b1-3)Gal(b1-4)GlcNAc(b1-2)Man(a1-3)[GlcNAc(b1-3)Gal(b1-4)GlcNAc(b1-2)Man(a1-6)]Man(b1-4)GlcNAc(b1-4)GlcNAc
In short: as §1

[25] = molecular target: GlcNAc(b1-3)Gal(b1-4)GlcNAc(b1-2)Man(a1-3)[GlcNAc(b1-3)Gal(b1-4)GlcNAc(b1-2)Man(a1-6)]Man(b1-4)GlcNAc(b1-4)[Fuc(a1-6)]GlcNAc
In short: as §1

[26] = molecular target: GlcNAc(b1-3)Gal(b1-4)GlcNAc(b1-2)[GlcNAc(b1-3)Gal(b1-4)GlcNAc(b1-6)]Man(a1-6)[GlcNAc(b1-3)Gal(b1-4)GlcNAc(b1-2)Man(a1-3)]Man(b1-4)GlcNAc(b1-4)GlcNAc
In short: as §1

[27] = molecular target: GlcNAc(b1-3)Gal(b1-4)GlcNAc(b1-3)Gal(b1-4)GlcNAc
In short: as §1

[28] = molecular target: GlcNAc(b1-3)Gal(b1-4)GlcNAc(b1-3)Gal(b1-4)GlcNAc(b1-2)Man(a1-3)[GlcNAc(b1-3)Gal(b1-4)GlcNAc(b1-3)Gal(b1-4)GlcNAc(b1-2)Man(a1-6)]Man(b1-4)GlcNAc(b1-4)GlcNAc
In short: as §1

[29] = molecular target: GlcNAc(b1-3)Gal(b1-4)GlcNAc(b1-3)Gal(b1-4)GlcNAc(b1-2)Man(a1-3)[GlcNAc(b1-3)Gal(b1-4)GlcNAc(b1-3)Gal(b1-4)GlcNAc(b1-2)Man(a1-6)]Man(b1-4)GlcNAc(b1-4)[Fuc(a1-6)]GlcNAc
In short: as §1

[30] = molecular target: GlcNAc(b1-3)Gal(b1-4)GlcNAc(b1-3)Gal(b1-4)GlcNAc(b1-2)[GlcNAc(b1-3)Gal(b1-4)GlcNAc(b1-3)Gal(b1-4)GlcNAc(b1-6)]Man(a1-6)[GlcNAc(b1-3)Gal(b1-4)GlcNAc(b1-3)Gal(b1-4)GlcNAc(b1-2)Man(a1-3)]Man(b1-4)GlcNAc(b1-4)[Fuc(a1-6)]GlcNAc
In short: as §1

[31] = molecular target: GlcNAc(b1-3)Gal(b1-4)GlcNAc(b1-3)Gal(b1-4)GlcNAc(b1-3)Gal(b1-4)GlcNAc(b1-2)Man(a1-3)[GlcNAc(b1-3)Gal(b1-4)GlcNAc(b1-3)Gal(b1-4)GlcNAc(b1-3)Gal(b1-4)GlcNAc(b1-2)Man(a1-6)]Man(b1-4)GlcNAc(b1-4)GlcNAc
In short: as §1

[32] = molecular target: GlcNAc(b1-3)Gal(b1-4)GlcNAc(b1-3)Gal(b1-4)GlcNAc(b1-3)Gal(b1-4)GlcNAc(b1-2)Man(a1-3)[GlcNAc(b1-3)Gal(b1-4)GlcNAc(b1-3)Gal(b1-4)GlcNAc(b1-3)Gal(b1-4)GlcNAc(b1-2)Man(a1-6)]Man(b1-4)GlcNAc(b1-4)[Fuc(a1-6)]GlcNAc
In short: as §1

[33] = molecular target: GlcNAc(b1-3)Gal(b1-4)GlcNAc(b1-3)Gal(b1-4)GlcNAc(b1-3)Gal(b1-4)GlcNAc(b1-2)[GlcNAc(b1-3)Gal(b1-4)GlcNAc(b1-3)Gal(b1-4)GlcNAc(b1-3)Gal(b1-4)GlcNAc(b1-6)]Man(a1-6)[GlcNAc(b1-3)Gal(b1-4)GlcNAc(b1-3)Gal(b1-4)GlcNAc(b1-3)Gal(b1-4)GlcNAc(b1-2)Man(a1-3)]Man(b1-4)GlcNAc(b1-4)[Fuc(a1-6)]GlcNAc
In short: as §1

[34] = molecular target: GlcNAc(b1-3)Gal(b1-4)GlcNAc(b1-3)Gal(b1-4)GlcNAc(b1-3)Gal(b1-4)GlcNAc(b1-3)Gal(b1-4)GlcNAc(b1-2)Man(a1-3)[GlcNAc(b1-3)Gal(b1-4)GlcNAc(b1-3)Gal(b1-4)GlcNAc(b1-3)Gal(b1-4)GlcNAc(b1-3)Gal(b1-4)GlcNAc(b1-2)Man(a1-6)]Man(b1-4)GlcNAc(b1-4)GlcNAc
In short: as §1

[35] = molecular target: GlcNAc(b1-3)Gal(b1-4)GlcNAc(b1-3)Gal(b1-4)GlcNAc(b1-3)Gal(b1-4)GlcNAc(b1-3)Gal(b1-4)GlcNAc(b1-2)Man(a1-3)[GlcNAc(b1-3)Gal(b1-4)GlcNAc(b1-3)Gal(b1-4)GlcNAc(b1-3)Gal(b1-4)GlcNAc(b1-3)Gal(b1-4)GlcNAc(b1-2)Man(a1-6)]Man(b1-4)GlcNAc(b1-4)[Fuc(a1-6)]GlcNAc
In short: as §1

B1: RbmA (Vibrio cholerae), A0A2H4NFB8 (protein)
chain: MSNFKGSIMNKRHYYLASCLALLFSTASYAEVDCELQPVIEANLSLNQNQLASNGGYISSQLGIRNESCETVKFKYWLSIKGPEGIYFPAKAVVGVDTAQQESDALTDGRMLNVTRGFWVPEYMADGKYTVSLQVVAENGEVFKANQEFVKGGDLNSLPELNGLTIDIKNQFGINSVESTGGFVPFTIDLNNGREGEAKVEFWMTAVGPDGLIIPVHSREKWMIIAGNTFSKVRGINFDKSYPAGEYTINAQVVDIVSGERVEQLMTVVKK
- glycan array binding signal (z-score) [1]: -1.07
- glycan array binding signal (z-score) [2]: 0.397
- glycan array binding signal (z-score) [3]: -0.351
- glycan array binding signal (z-score) [4]: -0.51
- glycan array binding signal (z-score) [5]: -0.328
- glycan array binding signal (z-score) [6]: 0.119
- glycan array binding signal (z-score) [7]: 3.48
- glycan array binding signal (z-score) [8]: 4.35
- glycan array binding signal (z-score) [9]: 1.6
- glycan array binding signal (z-score) [10]: -0.29
- glycan array binding signal (z-score) [11]: -0.108
- glycan array binding signal (z-score) [12]: -0.189
- glycan array binding signal (z-score) [13]: 0.16
- glycan array binding signal (z-score) [14]: 0.27
- glycan array binding signal (z-score) [15]: -0.394
- glycan array binding signal (z-score) [16]: -0.869
- glycan array binding signal (z-score) [17]: 0.291
- glycan array binding signal (z-score) [18]: -0.751
- glycan array binding signal (z-score) [19]: -0.384
- glycan array binding signal (z-score) [20]: -0.474
- glycan array binding signal (z-score) [21]: 0.351
- glycan array binding signal (z-score) (GlcNAc(b1-3)Fuc): -0.096
- glycan array binding signal (z-score) (GlcNAc(b1-3)Gal): -0.029
- glycan array binding signal (z-score) [22]: 0.322
- glycan array binding signal (z-score) (GlcNAc(b1-3)Gal(b1-4)Glc): -0.931
- glycan array binding signal (z-score) [23]: 0.727
- glycan array binding signal (z-score) [24]: -0.474
- glycan array binding signal (z-score) [25]: -0.508
- glycan array binding signal (z-score) [26]: 0.114
- glycan array binding signal (z-score) [27]: -0.783
- glycan array binding signal (z-score) [28]: 0.119
- glycan array binding signal (z-score) [29]: 0.5
- glycan array binding signal (z-score) [30]: -0.798
- glycan array binding signal (z-score) [31]: -0.754
- glycan array binding signal (z-score) [32]: 3.92
- glycan array binding signal (z-score) [33]: 0.187
- glycan array binding signal (z-score) [34]: -0.195
- glycan array binding signal (z-score) [35]: 2.9
